Holding throughout (experiment): cleaved PARP positive nuclei fraction relative to DMSO control; melanoma cells; higher = more apoptosis
What all share (conditions): library dose: low library concentration; 72 h

Assay [1] has as its system MZ2-MEL.
Assay [2] concerns MeWo.
Assay [3] concerns RPMI7951.
In assay [4] the test system is RVH-421.
Assay [5] deals with SkMel28.
In assay [6] the test system is SkMel2.
Assay [7] has as its system SkMel30.
In assay [8] the test system is SkMel5.
Assay [9] concerns UACC257.
The test system of assay [10] is UACC62.

The other results are listed elsewhere or left out. Single values are uncertain, as repeats are few or missing.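 The apoptosis fraction was the count of cleaved-PARP antibody-stained nuclei relative to all DNA-stained nuclei, imaged in 1,536-well plates. Screening doses were set so most cells survived, and baseline and induced cleaved-PARP levels vary greatly across cell lines.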

On to `Cn1sc(=O)n(Cc2ccccc2)c1=O` + C=CCn1c(=O)c2cnc(Nc3ccc(N4CCN(C)CC4)cc3)nc2n1-c1cccc(C(C)(C)O)n1 [MK1775] (first compound 0.4 µM, partner dose 0.02 µM), for which the “cleaved PARP positive nuclei fraction” value in [1] was 147%; in assay [2], 62.8%; in [3], 58.7%; in [4], 163%; in [5] it was 39.6%; in [6], 82.2%. The “cleaved PARP positive nuclei fraction” value in assay [7] was found to be 75.1%; in assay [8], 185%; in [9], 691%; in assay [10], 97.9%.
On to `CS(=O)(=O)c1ccc(C(=O)Nc2ccc(Cl)c(-c3ccccn3)c2)c(Cl)c1` [vismodegib] + N#Cc1c(O)c2c(-c3ccc(-c4ccccc4O)cc3)csc2[nH]c1=O [A769662] (first compound 1 µM, partner dose 2 µM), for which the “cleaved PARP positive nuclei fraction” value was found to be 100% in assay [1]; 420% in [2]; 71.3% in [3]; 36.1% in [4]; 63.2% in [5]; 92.1% in [6]. For the same molecule, the “cleaved PARP positive nuclei fraction” value turned out to be 54.9% in assay [7], 139% in assay [8], 175% in assay [9] and 69.7% in [10].
As to `COc1ccc(C2=N[C@@H](c3ccc(Cl)cc3)[C@@H](c3ccc(Cl)cc3)N2C(=O)N2CCNC(=O)C2)c(OC(C)C)c1` [Nutlin-3] + O=C(Nc1cccc(Cl)c1)Nc1ncc(CCNc2ncnc3ccsc23)s1 [SNS314] (first compound 0.1 µM, partner dose 0.0008 µM), the “cleaved PARP positive nuclei fraction” value in assay [1] worked out at 68.5%; in [2], 47%; in assay [3] it was 86.5%; in assay [4], 49.6%; in assay [5], 65.3%; in [6], 231%. Also, the “cleaved PARP positive nuclei fraction” value in assay [7] was found to be 205%; in assay [8], 161%; in [9] it was 375%; in [10] it was 79.8%.
As to `NC1(c2ccc(-c3nc4ccn5c(=O)[nH]nc5c4cc3-c3ccccc3)cc2)CCC1` + CC(C)CCN1c2nc(Nc3cc(F)c(O)c(F)c3)ncc2N(C)C(=O)C1C [BID1870] (first compound 0.4 µM, partner dose 0.2 µM), the “cleaved PARP positive nuclei fraction” value in [1] came to 105%; in [2] it was 81.5%; in assay [3], 71%; in assay [4], 59.5%; in assay [5], 191%; in assay [6] it was 145%. Besides, the “cleaved PARP positive nuclei fraction” value in [7] came to 322%; in [8], 70.2%; in [9] it was 266%; in [10], 141%.
Consider `CC(=O)O[C@@]12CO[C@@H]1C[C@H](O)[C@@]1(C)C(=O)[C@H](O)C3=C(C)[C@@H](OC(=O)[C@H](O)[C@@H](NC(=O)OC(C)(C)C)c4ccccc4)C[C@@](O)([C@@H](OC(=O)c4ccccc4)[C@H]21)C3(C)C` [Docetaxel] + CN(C)S(=O)(=O)c1ccc2c(c1)/C(=C/c1cc3c([nH]1)CCCC3)C(=O)N2 [SU6656] (first compound 0.0001 µM, partner dose 0.4 µM), for which the “cleaved PARP positive nuclei fraction” value in assay [1] was found to be 639%; in assay [2], 296%; in assay [3], 494%; in assay [4], 109%; in [5] it was 312%; in [6] it was 402%. In addition, the “cleaved PARP positive nuclei fraction” value in [7] was 209%; in assay [8], 104%; in assay [9], 233%; in [10], 114%.
In the case of `CN(c1ncccc1CNc1nc(Nc2ccc3c(c2)CC(=O)N3)ncc1C(F)(F)F)S(C)(=O)=O` + CC(C)(C)c1cnc(CSc2cnc(NC(=O)C3CCNCC3)s2)o1 [SNS-032] (first compound 0.08 µM, partner dose 0.01 µM), the “cleaved PARP positive nuclei fraction” value in [1] was found to be 158%; in assay [2] it was 221%; in [3] it was 60.9%; in [4] it was 99.9%; in assay [5], 88.2%; in [6], 151%. The “cleaved PARP positive nuclei fraction” value was 182% in assay [7], 98.7% in assay [8], 74.9% in assay [9] and 207% in assay [10].
For the molecule `C[C@]1(O)C[C@@H](c2nc(-c3ccc4ccc(-c5ccccc5)nc4c3)c3c(N)nccn32)C1` + COc1ccc(COc2ccc(Cc3cnc(N)nc3N)cc2OC)cc1 [GW2580] (first compound 0.4 µM, partner dose 1 µM), the “cleaved PARP positive nuclei fraction” value in assay [1] was 83.5%; in [2] it was 162%; in assay [3], 63.4%; in assay [4], 440%; in assay [5], 76.6%; in [6] it was 66.3%. For the same molecule, the “cleaved PARP positive nuclei fraction” value in assay [7] turned out to be 77%; in assay [8], 85%; in assay [9], 138%; in [10], 83.2%.
In the case of `CS(=O)(=O)c1ccc(C(=O)Nc2ccc(Cl)c(-c3ccccn3)c2)c(Cl)c1` [vismodegib] + O=C(O)c1ccc(-c2c[nH]c3ncc(-c4ccccc4)cc23)cc1C1CCCC1 [GSK650394] (first compound 1 µM, partner dose 0.16 µM), the “cleaved PARP positive nuclei fraction” value worked out at 81.6% in assay [1]; 234% in assay [2]; 62.5% in assay [3]; 93.5% in [4]; 28.2% in [5]; 62.1% in assay [6]. Moreover, the “cleaved PARP positive nuclei fraction” value in [7] is 67.8%; in [8], 68.6%; in assay [9] it was 109%; in assay [10], 99.8%.
As for `Cn1cnc2c(F)c(Nc3ccc(Br)cc3Cl)c(C(=O)NOCCO)cc21` [selumetinib] + COc1ccc(-c2ccc3c(N4CCOCC4)nc(N4C[C@@H](C)O[C@@H](C)C4)nc3n2)cc1CO [KU0063794] (first compound 0.015 µM, partner dose 0.02 µM), the “cleaved PARP positive nuclei fraction” value amounted to 121% in [1]; 96.2% in [2]; 36.5% in [3]; 91.8% in assay [4]; 152% in [5]; 98.3% in assay [6]. Further, the “cleaved PARP positive nuclei fraction” value was determined as 202% in assay [7], 32.8% in assay [8], 140% in assay [9] and 341% in assay [10].
With `CS(=O)(=O)c1ccc(C(=O)Nc2ccc(Cl)c(-c3ccccn3)c2)c(Cl)c1` [vismodegib] + Oc1cc(-c2nc(-c3ccccc3)[nH]c2-c2ccncc2)ccc1Cl [L779450] (first compound 1 µM, partner dose 0.2 µM), the “cleaved PARP positive nuclei fraction” value in assay [1] came to 38.2%; in assay [2], 88.2%; in assay [3], 74.1%; in assay [4], 93.4%; in [5] it was 136%; in [6], 95.8%. Besides, the “cleaved PARP positive nuclei fraction” value in [7] is 18.1%; in assay [8], 81.7%; in assay [9] it was 99.6%; in assay [10], 145%.

The record behind these values is the supplement of paper PMC4604168 (melanoma cell lines).
